In PubChem BioAssay AID1347422 (Sanford-Burnham Center for Chemical Genomics, 2020):
Whole data set: some 1,000 compounds, median “thermal shift dTm” near 0.19, cut for the highest 2% near 1.7. The list shows a part of the results. Activity calls are given as the source filed them.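 How the source made its calls: active means mean rise in melting temperature of at least 1 degC over same-plate control wells; inactive means below that, where a call was filed.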

Sequences of proteins named here, by UniProt entry; tags and fusion partners are left off. A change or cut given only in a name is not applied to a line headed by its entry.
UniProt O00391: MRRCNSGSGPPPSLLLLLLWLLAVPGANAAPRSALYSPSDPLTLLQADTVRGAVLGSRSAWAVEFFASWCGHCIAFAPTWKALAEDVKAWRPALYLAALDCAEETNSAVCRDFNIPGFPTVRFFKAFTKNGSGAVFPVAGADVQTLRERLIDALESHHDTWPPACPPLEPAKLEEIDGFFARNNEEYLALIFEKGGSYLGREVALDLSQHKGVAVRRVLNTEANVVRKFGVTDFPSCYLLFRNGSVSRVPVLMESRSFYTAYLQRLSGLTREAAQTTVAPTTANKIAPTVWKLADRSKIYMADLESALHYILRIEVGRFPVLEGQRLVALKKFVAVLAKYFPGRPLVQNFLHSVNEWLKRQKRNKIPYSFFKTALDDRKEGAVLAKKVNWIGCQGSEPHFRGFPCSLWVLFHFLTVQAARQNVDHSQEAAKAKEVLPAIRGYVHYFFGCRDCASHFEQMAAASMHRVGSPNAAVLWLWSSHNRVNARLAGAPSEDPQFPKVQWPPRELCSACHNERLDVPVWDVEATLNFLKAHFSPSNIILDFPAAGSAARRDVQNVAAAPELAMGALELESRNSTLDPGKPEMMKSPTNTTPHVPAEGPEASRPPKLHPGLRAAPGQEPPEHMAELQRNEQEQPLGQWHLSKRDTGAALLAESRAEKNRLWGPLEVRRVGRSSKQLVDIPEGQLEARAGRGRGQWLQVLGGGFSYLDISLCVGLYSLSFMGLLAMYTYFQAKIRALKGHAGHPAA

target: Sulfhydryl oxidase 1 (Homo sapiens) (UniProt O00391); test: QSOX1 binders by thermal stabilization, confirmation, QSOX1 inhibitor project, biophysical, protein thermal shift, single concentration (AID 1347422); details: recombinant hQSOX1 thermal shift, Sypro Orange, at 25 µM, stronger effect = higher value;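 further: dTm is compound Tm minus mean Tm of DMSO-only wells on that plate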

Compared with COCc1cc(=O)c2c(=O)n(-c3ccccc3)[nH]c2[nH]1, COc1ccc(/C=C/C=C2\N=C(SCc3ccccc3)SC2=O)cc1 is higher in thermal shift dTm: 0.61 °C for the first, 0.63 °C for the second.

First: CCOC(=O)C(C(=O)Nc1ccc(Cl)c(Cl)c1)C1CCCCC1 (stereo not drawn)
Second: CCCOC(=O)c1c(NC(=O)C2CCCCC2C(=O)O)sc(C)c1-c1ccc(F)cc1 (stereo not drawn)
The thermal shift dTm of the first is lower: 0.02 °C for the first, 0.06 °C for the second.

O=C(NC1CC(=O)N(Cc2cccc3ccccc23)C1)C(=O)c1ccccc1 (stereo not drawn) and O=C(c1cccc(NS(=O)(=O)c2ccccc2)c1)N1CCc2ccccc21 are the same in thermal shift dTm: 0.23 °C for the first, 0.23 °C for the second.

First: O=S(=O)(Nc1ccc2c(c1)OCCO2)c1ccc(OC(F)(F)F)cc1
Second: O=C(C#Cc1ccccc1)Nc1ccc2c(c1)OCCO2
The thermal shift dTm of the first is higher: 0.37 °C for the first, 0.24 °C for the second.

Compared with COc1ccc(Cl)cc1S(=O)(=O)Nc1cccc(O)c1, COc1cccc(NC(=O)Nc2cc(C)ccc2F)c1 is lower in thermal shift dTm: 0.23 °C for the first, 0 °C for the second.

Compared with CC(NS(=O)(=O)c1ccc(Cl)cc1)C1C2CC3CC(C2)CC1C3 (stereo not drawn), CC(NC(=S)NCc1ccccc1)C12CC3CC(CC(C3)C1)C2 (stereo not drawn) is higher in thermal shift dTm: 0.05 °C for the first, 0.45 °C for the second.

Going from CC(=O)N1CCN(c2ncccc2CNC(=O)Nc2cccc(F)c2)CC1 to CC(=O)c1ccc(NC(=O)Nc2ccc(Cl)cn2)cc1, the thermal shift dTm falls from 0.85 °C to 0.1 °C.

Compared with Cc1[nH]nc(-c2ccc(O)cc2O)c1Oc1ccccc1F, Cn1c(=O)c(C(=O)Nc2cccc(O)c2)c(O)c2ccccc21 is lower in thermal shift dTm: 0.2 °C for the first, 0.05 °C for the second.

Going from O=C(CCC(=O)OCc1ccc(Br)cc1)Nc1cc(C(F)(F)F)ccc1Cl to O=C(CNC(=O)c1ccc(Cl)cc1)OCc1ccc(Br)cc1, the thermal shift dTm rises from 0.17 °C to 0.63 °C.

Going from COc1ccc(OCCOCCOc2ccc(C(C)(C)C)cc2)cc1 to COCCCNC(=O)c1ccc(NC(=O)c2ccc(OC)cc2)cc1, the thermal shift dTm rises from 0.11 °C to 0.38 °C.

N#Cc1cccc(-c2nc3c(cnn3CC3CC=CCC3)[nH]2)c1 (stereo not drawn) and Cc1ncc(CNc2ccc(-c3nc4ccccc4[nH]3)cc2)cn1 are the same in thermal shift dTm: 0.14 °C for the first, 0.14 °C for the second.

Compared with Cc1ccccc1NC(=O)Nc1nnc(C23CC4CC(CC(C4)C2)C3)s1, Cc1ccc(C(=O)Nc2nc(-c3ccccc3)c(C)s2)s1 is lower in thermal shift dTm: 0.2 °C for the first, 0.01 °C for the second.

First: COc1cc(S(=O)(=O)NC(c2ccccc2)c2ccccc2)ccc1F
Second: CCC(Oc1ccccc1)C(=O)NC(c1ccccc1)c1ccc(OC)cc1 (stereo not drawn)
The thermal shift dTm of the first is lower: 0.07 °C for the first, 0.11 °C for the second.

Going from CCC(=O)Nc1ccc(OC(=O)c2ccccc2Cl)cc1 to CCC(c1ccc(OC)cc1)N(CC)C(=O)Nc1ccccc1 (stereo not drawn), the thermal shift dTm falls from 0.25 °C to 0.14 °C.

First: O=C(CCC1CCCN(C(=O)CCN2CCCO2)C1)N1CCN(Cc2ccccc2)CC1 (stereo not drawn)
Second: N#Cc1ccccc1COc1ccc(C(=S)N2CCCC2)cc1Cl
The thermal shift dTm of the first is lower: 0.04 °C for the first, 0.24 °C for the second.

Compared with Cc1cccc(/C=C/c2ccc3cccc(O)c3n2)c1O, CCC(=O)Oc1ccc(/C=C/c2ccc3ccccc3n2)cc1 is lower in thermal shift dTm: 0.57 °C for the first, 0.11 °C for the second.

First: NC(=O)c1ccnc(-c2ccc(Cl)s2)c1
Second: COc1ccc(C(=O)Oc2ccccc2Cl)cc1Br
The thermal shift dTm of the first is lower: 0.04 °C for the first, 0.06 °C for the second.

O=C(NCC1Cc2cccc(-c3cnccn3)c2O1)c1cncs1 (stereo not drawn) and O=C(Nc1cccc(OCC2CCCO2)c1)c1cccs1 (stereo not drawn) are the same in thermal shift dTm: 0.09 °C for the first, 0.09 °C for the second.

First: COc1ccc(OCC(=O)Nc2cc(Cl)ccc2O)cc1
Second: COc1ccc(NC(=O)Nc2ccc(OC(F)(F)F)cc2)c(OC)c1
The thermal shift dTm of the first is lower: 0.02 °C for the first, 0.8 °C for the second.

Going from O=C(CSC1=NCCS1)Nc1ccc2ccccc2c1 to O=C(CCc1ccccc1)Nc1cccc(-c2nc3ccccc3s2)c1, the thermal shift dTm rises from 0.14 °C to 0.59 °C.

Going from Cc1cc(Nc2ccc(S(=O)(=O)NCc3ccccc3)cc2)ncn1 to Cc1ccc(S(=O)(=O)Nc2ccc(-c3cn4ccc(C)cc4n3)cc2)cc1, the thermal shift dTm rises from 0.04 °C to 0.71 °C.

First: O=C(Nc1ccc2c(c1)OCO2)c1sc2cccc(F)c2c1Cl
Second: Cc1ccc(NS(=O)(=O)c2cc(C(=O)Nc3ccc4c(c3)OCO4)ccc2C)cc1
The thermal shift dTm of the first is lower: 0.29 °C for the first, 0.66 °C for the second.

Compared with O=C(c1ccncc1)c1ccc(NC(=O)c2cccs2)cc1, Cc1ccc(S(=O)(=O)Nc2ccc(C(=O)Nc3cccnc3)cc2)cc1 is higher in thermal shift dTm: 0.05 °C for the first, 0.23 °C for the second.

Going from CCc1cccc2c1N=C/C2=C\c1c(O)n(Cc2ccco2)c(=O)[nH]c1=O to O=c1c2c3nc4ccccc4nc3n(C3CCCC3)c2ncn1Cc1ccco1, the thermal shift dTm falls from 0.91 °C to 0.71 °C.

Compared with CC(C)c1ccc(NC(=S)Nc2ccccc2Oc2ccccc2)cc1, FC(F)(F)c1ccccc1NC(=S)Nc1ccc(OCc2ccccc2)cc1 is higher in thermal shift dTm: 0.11 °C for the first, 0.68 °C for the second.

Compared with Cc1ccc(Nc2nc(-c3sc(C)nc3C)cs2)nc1, CCc1c(C(=O)Nc2ccc3[nH]ncc3c2)csc1C is higher in thermal shift dTm: 0.16 °C for the first, 0.29 °C for the second.

Compared with Cc1cccc(OCC(=O)Nc2cccc(NC(=O)c3ccco3)c2)c1C, O=C(Cc1cccs1)Nc1cccc(NC(=O)c2ccco2)c1 is lower in thermal shift dTm: 0.85 °C for the first, 0.23 °C for the second.

Going from CC(=O)Nc1cccc(NC(=O)c2cc(Br)cs2)c1 to O=C(Nc1ccc(Cl)cc1C(=O)O)c1ccccc1, the thermal shift dTm falls from 0.83 °C to 0.52 °C.

First: CC(C)N1CC(C(=O)Nc2ccc(C(=O)Nc3ccc(Cl)cn3)cc2)CC1=O (stereo not drawn)
Second: Cc1ccc(NC(=O)NCc2nc(-c3ccccc3Cl)no2)cc1
The thermal shift dTm of the first is lower: 0.14 °C for the first, 0.2 °C for the second.

Going from CN(C)c1nc(N/N=C/c2cc(Br)c(O)c(Br)c2O)nc(Nc2ccc(F)cc2)n1 to Cc1ccc2nc(-c3ccc(NC(=O)Cc4ccc(F)cc4)cc3)sc2c1, the thermal shift dTm falls from 0.1 °C to 0.06 °C.

Compared with C=CCN1C(=O)C(Cc2ccc(F)cc2)S/C1=N\N=C\c1ccccc1 (stereo not drawn), O=c1[nH]c(SCCOc2cccc3ccccc23)nc2ccccc12 is higher in thermal shift dTm: 0.01 °C for the first, 0.11 °C for the second.

Compared with Cc1cc(-c2noc(COc3ccccc3)n2)c2ccccc2n1, O=C(Nc1ncc(Cc2ccccc2)s1)c1cccc(-n2cnnn2)c1 is higher in thermal shift dTm: 0.15 °C for the first, 0.18 °C for the second.

Going from Cc1nc(NC(=O)c2ccc(Br)s2)sc1C to CCOC(=O)c1sc(NC(=O)CSc2nc(SC)ns2)nc1C, the thermal shift dTm falls from 0.27 °C to 0.19 °C.

First: CC1CN(CC(=O)NCc2ccc(-n3cccn3)cc2)Cc2cc(Cl)ccc2O1 (stereo not drawn)
Second: NC(=O)c1cn(-c2ccccc2)nc1-c1ccc(-c2ccccc2)cc1
The thermal shift dTm of the first is higher: 0.09 °C for the first, 0.07 °C for the second.

First: Cc1oc(-c2ccccc2NS(C)(=O)=O)nc1CN(C)Cc1ccc(OC(F)F)cc1
Second: COc1ccc2c(CCNC(=O)c3cccc(C)c3)c[nH]c2c1
The thermal shift dTm of the first is higher: 0.18 °C for the first, 0.06 °C for the second.

Going from COc1cc(/C=C2/SC(N)=NC2=O)ccc1OCc1ccc(I)cc1 to CCOc1cccc(/C=C2\N=C(SCc3ccccc3)SC2=O)c1OC, the thermal shift dTm rises from 0.05 °C to 0.4 °C.

Going from Cc1ccc(C2(c3ccc(C)cc3)CC2C(=O)Nc2ccccc2)cc1 (stereo not drawn) to COc1ccc(NC(=O)Nc2ccc(C)cc2)c(OC)c1, the thermal shift dTm rises from 0.05 °C to 0.2 °C.

First: NS(=O)(=O)c1ccc(C(=O)OCc2cccc(Cl)c2Cl)cc1
Second: Cc1ccc(-c2cn(S(=O)(=O)c3cccc4nsnc34)nc2N)cc1
The thermal shift dTm of the first is higher: 0.16 °C for the first, 0.1 °C for the second.

Going from CCC(=S)/C=C1\Sc2ccc(Cl)cc2N1CCCS(=O)(=O)O to O=C(CC1SC(=O)NC1=O)Nc1ccccc1NC(=O)CC1SC(=O)NC1=O (stereo not drawn), the thermal shift dTm falls from 0.95 °C to 0.86 °C.

Cc1ccc(C)c(-c2csc(NC(=O)c3ccncc3)c2C#N)c1 was tested, and the thermal shift dTm was 0.88 °C.

With CC(=O)Nc1cccc(-c2csc(Nc3ccc(C)cn3)n2)c1 the thermal shift dTm was active: 1.21 °C.
In the case of Cc1ccc(S(=O)(=O)Nc2ccc(C(=O)Nc3ccc4c(c3)OCO4)cc2)cc1, the thermal shift dTm is reported as active: 1.03 °C.
For O=C(Nc1ccc(S(=O)(=O)N2CCCC2)cc1)c1ccc2c(c1)OCO2, the thermal shift dTm was active: 1.04 °C.
For CCOc1cccc(C(=O)Nc2ccc(F)c(F)c2)c1, the thermal shift dTm was active: 1.44 °C.
With COc1ccc(NC(=O)Nc2cccc(Cl)c2)cn1 the thermal shift dTm was active: 1.02 °C.
With C=CCN1C(=O)C(c2c(C)[nH]c3ccccc23)(c2c(C)[nH]c3ccccc23)c2ccccc21 the thermal shift dTm was active: 1.05 °C.
For Cc1ccc2[nH]cc(CCNC(=O)c3ccccc3Cl)c2c1, the thermal shift dTm was inactive: -0.13 °C.
With CCCC(=O)Nc1cccc(NC(=O)/C=C/c2ccc(Cl)cc2)c1 the thermal shift dTm was inactive: -31.6 °C.
With C=CCSc1nc(-c2ccccc2)ccc1C#N the thermal shift dTm was inactive: -0.17 °C.
With CC(=O)N1CCN(Cc2cc(C(C)(C)C)c(O)c(C(C)(C)C)c2)CC1 the thermal shift dTm was active: 1.26 °C.
With Cc1ccc(Nc2nc(C3CC(CC(C)C)C(=O)O3)cs2)cc1 (stereo not drawn) the thermal shift dTm was inactive: -0.09 °C.
In the case of O=C(/C=C/c1ccc(Cl)cc1)Nc1cccnc1, the thermal shift dTm is reported as active: 2.02 °C.
With O=C1OC(c2ccccc2)OC(=O)C1=Cc1ccc(-c2cccc(C(F)(F)F)c2)o1 (stereo not drawn) the thermal shift dTm was active: 1.07 °C.
CCNS(=O)(=O)c1ccc(NC(=O)Nc2cc(C)ccc2OC)cc1 was tested, and the thermal shift dTm was active: 1.17 °C.
O=C(Nc1ccccc1)OCC1COc2ccccc2O1 (stereo not drawn) was tested, and the thermal shift dTm was inactive: -0.05 °C.
In the case of COc1ccc(NC(=O)CSc2nnc(-c3ccc4ccccc4n3)s2)cc1, the thermal shift dTm is reported as inactive: -0.09 °C.
In the case of Cc1ccc(-c2noc(CNC(=O)c3ccc4ccccc4c3)n2)cc1, the thermal shift dTm is reported as inactive: -0.08 °C.
For O=C(Nc1ccc2[nH]ncc2c1)c1cccc(F)c1, the thermal shift dTm was active: 1.63 °C.
With CCOc1c(Cl)cc(-c2nc3ccc(Br)cc3c(=O)o2)cc1Cl the thermal shift dTm was active: 1.55 °C.
With OCc1cn(-c2ccccc2)nc1-c1ccc2ccccc2c1 the thermal shift dTm was inactive: -0.09 °C.
For COc1cc(NC(=O)CSc2ccc(Cl)cc2)ccc1NC(=O)c1ccco1, the thermal shift dTm was active: 1.17 °C.
In the case of COc1ccc(C)cc1NS(=O)(=O)c1ccc(NC(=O)c2ccc(C)cc2)cc1, the thermal shift dTm is reported as inactive: -0.08 °C.
In the case of CCCNC(=O)c1ccc(-c2cccc(-c3ccn[nH]3)c2)nc1, the thermal shift dTm is reported as inactive: 0 °C.
With C/C(CCc1ccc2c(c1)OCO2)=N\N=C(/N)SC1CC(=O)N(c2ccc(Cl)cc2)C1=O (stereo not drawn) the thermal shift dTm was inactive: -0.09 °C.
With Cc1ccc(-c2noc(CNC(=O)c3ccc(C(C)(C)C)cc3)n2)cc1 the thermal shift dTm was inactive: -0.13 °C.
For O=C(O)CCCNC(=O)/C(=C\c1ccc(F)cc1)NC(=O)c1ccco1, the thermal shift dTm was inactive: -0.09 °C.
With CCOc1cc(S(=O)(=O)NC(C)c2ccccc2)ccc1Br (stereo not drawn) the thermal shift dTm was inactive: -22.5 °C.
OCc1cn(-c2ccccc2)nc1-c1cccc(Br)c1 was tested, and the thermal shift dTm was inactive: -0.13 °C.
For CCC(=O)Oc1ccc(-c2nc3cc(Cl)ccc3c(=O)o2)cc1, the thermal shift dTm was active: 1.23 °C.
